Data: PubChem BioAssay AID1487 (National Center for Advancing Translational Sciences (NCATS), 2009)
The other results are listed elsewhere or left out. Further columns of the screen follow, without active or inactive calls. Most of these compounds were active or inconclusive in the main read-out, so they are no random draw. Words in brackets tell the shape of the fitted curve; partial curves, single points and poor fits give uncertain potencies.

Experiment: qHTS Assay for Modulators of Lamin A Splicing
Conditions: HeLa LMNA splicing GFP/RFP minigene ratio, 48 h
Summary of the method: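 S3 HeLa cells stably expressing lamin A-EGFP splicing minigene plus DsRed2, 600 cells/well, 48 h compound exposure at 37C. Laser-scanning cytometry; analysed as GFP (500-530 nm)/RFP (575-640 nm) total intensity ratio; 0.5% DMSO vehicle.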

[1] = measured here: GFP splicing reporter channel
[2] = measured here: RFP viability control channel

Compound | AC50 [1] | AC50 [2]
OCCN(CCO)c1ncnc2c1cnn2-c1ccc(F)cc1 | 0.00316 µM [falling, full curve] | 0.00316 µM [falling, full curve, poor fit]
O=C(Nc1ccc([N+](=O)[O-])cc1)Nc1ccc(OC(F)F)c(Cl)c1 | 2.24 µM [rising, single point] | 12.6 µM [rising, partial curve]
COc1ccccc1N1CCN(C(=O)c2ccc(S(=O)(=O)N3CCCCCC3)cc2)CC1 |  | 10 µM [rising, single point]
COCCSc1nnc(NC(=O)c2ccc3c(c2)OCO3)s1 | 5.62 µM [falling, partial curve, poor fit] | 
Cc1csc2nc(COC(=O)c3ccccc3NC(=O)c3ccc(C(C)(C)C)cc3)cc(=O)n12 | 35.5 µM [falling, single point] | 2.82 µM [falling, single point]
O=C(CCCn1c(=O)c2cccn2c2ccccc21)NCCc1ccc(Cl)cc1 | 15.8 µM [falling, partial curve, poor fit] | 
Cc1sc(NC(=O)c2cc(-c3ccc(Cl)cc3)nc3ccccc23)c(C(N)=O)c1C | 11.2 µM [falling, partial curve] | 10 µM [falling, partial curve]
COc1ccc(-c2csc(NC(=O)c3ccc(OCC(=O)N4CCOCC4)c(OC)c3)n2)cc1OC | 35.5 µM [falling, single point] | 0.794 µM [rising, full curve, poor fit]
CCC(C)Cn1c(C)nc2ccccc21 (centres undefined) | 17.8 µM [rising, partial curve] | 12.6 µM [rising, partial curve]
Cc1nc(C)c(-c2csc(N)n2)s1 |  | 11.2 µM [falling, single point]
C/C(N)=C(/C#N)C(=O)CSc1nnc(Nc2c(C)cccc2C)s1 |  | 0.00447 µM [falling, full curve, poor fit]
Cc1nc(N)c(Br)c(C)c1Br |  | 0.00891 µM [falling, full curve, poor fit]
COc1cc(CNC2CCCCCCC2)cc(Br)c1OCC#N | 14.1 µM [rising, single point] | 11.2 µM [rising, partial curve]
Cc1nc2ccc(NC(=O)c3cc(S(=O)(=O)N4CCOCC4)ccc3C)cc2s1 |  | 20 µM [rising, single point]
O=C(COC(=O)CNC(=O)c1cccc([N+](=O)[O-])c1)Nc1ccccc1OC(F)F |  | 0.0708 µM [falling, full curve, poor fit]
O=C(O)C(=O)/C(=C\c1cccc(Cl)c1)c1ccc2ccccc2n1 |  | 0.0794 µM [falling, full curve, poor fit]
Cc1cc(C)cc(NC(=O)CSc2nc3[nH]ncc3c(=O)[nH]2)c1 |  | 11.2 µM [rising, partial curve, poor fit]
Cn1c(-c2cccc3ccccc23)n[nH]c1=S | 31.6 µM [falling, single point] | 
CN1C(=O)C(N=Nc2ccccc2C(=O)O)N(C)C1=S (centres undefined) | 22.4 µM [rising, partial curve, poor fit] | 35.5 µM [rising, single point]
O=[N+]([O-])c1ccc(NC(=S)N2CCc3ccccc3C2)cc1 | 12.6 µM [rising, partial curve] | 22.4 µM [rising, partial curve]
O=C(NCc1ccccc1F)c1ccc(CSc2nc3cccnc3n2Cc2ccccc2)cc1 | 35.5 µM [falling, partial curve, poor fit] | 
CCCC(=O)Nc1ccc(C(=O)N/N=C/c2ccc([N+](=O)[O-])o2)cc1 | 35.5 µM [rising, single point] | 6.31 µM [rising, partial curve]
CCCN(Cc1cc2cc(C)ccc2[nH]c1=O)C(=O)c1cccc(OC)c1 |  | 11.2 µM [rising, partial curve, poor fit]
NC(=O)C1(N2CCCCC2)CCN(CC(=O)Nc2ccc(Oc3ccccc3)cc2)CC1 | 11.2 µM [rising, partial curve, poor fit] | 22.4 µM [rising, single point]
CS(=O)(=O)N(CCc1ccccc1)CC(=O)Nc1ccc2c(c1)OCO2 | 10 µM [rising, partial curve] | 20 µM [rising, partial curve]
N#Cc1nc(-c2ccc(COc3ccccc3)o2)oc1N1CCCCC1 | 11.2 µM [rising, partial curve, poor fit] | 
O=C(/C(=C/c1ccc(Cl)cc1)c1nc2ccccc2[nH]1)c1cccs1 |  | 10 µM [rising, partial curve]

Among those listed so far, 4 contain a nitro group on carbon:
Compound | AC50 [1] | AC50 [2]
O=C(Nc1ccc([N+](=O)[O-])cc1)Nc1ccc(OC(F)F)c(Cl)c1 | 2.24 µM [rising, single point] | 12.6 µM [rising, partial curve]
O=C(COC(=O)CNC(=O)c1cccc([N+](=O)[O-])c1)Nc1ccccc1OC(F)F |  | 0.0708 µM [falling, full curve, poor fit]
O=[N+]([O-])c1ccc(NC(=S)N2CCc3ccccc3C2)cc1 | 12.6 µM [rising, partial curve] | 22.4 µM [rising, partial curve]
CCCC(=O)Nc1ccc(C(=O)N/N=C/c2ccc([N+](=O)[O-])o2)cc1 | 35.5 µM [rising, single point] | 6.31 µM [rising, partial curve]

In a second layout: results already given.
Compound	AC50 [1]	AC50 [2]
COCCSc1nnc(NC(=O)c2ccc3c(c2)OCO3)s1	5.62 µM [falling, partial curve, poor fit]	
Cc1csc2nc(COC(=O)c3ccccc3NC(=O)c3ccc(C(C)(C)C)cc3)cc(=O)n12	35.5 µM [falling, single point]	2.82 µM [falling, single point]

(more compounds)

Compound | AC50 [1] | AC50 [2]
O=C(Nc1cccnc1)C1CCCN(S(=O)(=O)c2cccc3nsnc23)C1 (centres undefined) |  | 25.1 µM [rising, single point]
Cc1cc(C)n2[nH]c(=O)c(N=Nc3ccc(S(N)(=O)=O)cc3)c2n1 | 35.5 µM [rising, single point] | 0.355 µM [rising, partial curve, poor fit]
CC(C(=O)OCC(=O)Nc1cccc(S(=O)(=O)N2CCOCC2)c1)N1C(=O)c2ccccc2C1=O (centres undefined) |  | 1.12 µM [falling, partial curve, poor fit]
CCn1c(C)nc2cc(C(=O)N/N=C(\C)c3ccccc3O)ccc21 |  | 3.98 µM [rising, partial curve, poor fit]
N=c1c2c(n(Cc3ccc(Cl)c(Cl)c3)c3c1CCC3)CCCC2 |  | 25.1 µM [rising, single point]
CCn1c(-c2cc(-c3ccc(C)c(C)c3)nc3ccccc23)n[nH]c1=S | 0.0708 µM [falling, full curve, poor fit] | 25.1 µM [falling, partial curve, poor fit]
CC(C)Sc1snnc1-c1ccccc1 |  | 4.47 µM [falling, full curve]
Cc1ccc(CNC(=O)Cc2ccc(-n3cccc3)cc2)cc1 |  | 5.01 µM [rising, full curve]
COc1ccc(C(=O)CSc2n[nH]c(-c3ccncc3)n2)cc1[N+](=O)[O-] | 17.8 µM [rising, partial curve, poor fit] | 0.794 µM [rising, full curve, poor fit]
Cc1ccc(SCCNC(=S)Nc2ccc(C)cc2C)cc1 | 35.5 µM [rising, single point] | 
C/C1=C2N=C(/C=C3N=C(/C(C)=C4\[N-]C(C)(C5N=C1C(C)(CCC(=O)NCC(C)OP(=O)([O-])O[C@H]1C(O)C(n6cnc7cc(C)c(C)cc76)O[C@@H]1CO)C5CC(N)=O)C(C)(CC(N)=O)C4CCC(N)=O)C(C)(CC(N)=O)C\3CCC(N)=O)C(C)(C)C/2CCC(N)=O.[CH2-]C1OC(n2cnc3c(N)ncnc32)C(O)C1O.[Co] (some centres undefined) | 14.1 µM [rising, single point] | 0.0355 µM [rising, full curve]
COc1ccccc1NC(=O)Cn1cc(C(=O)c2ccco2)c2ccccc21 | 11.2 µM [falling, partial curve, poor fit] | 17.8 µM [falling, single point]
O=c1cnn(-c2ccc(Cl)cc2Cl)c(-c2ccccc2)c1 |  | 25.1 µM [rising, single point]
O=C(CC1NCCNC1=O)Nc1cccc([N+](=O)[O-])c1 (centres undefined) | 1.26 µM [falling, partial curve] | 1.41 µM [falling, partial curve, poor fit]
CCc1ccccc1Nc1nc(N)nc(COC(=O)c2cccn2C)n1 |  | 11.2 µM [rising, partial curve]
C/C(=N\NC(=S)NCc1ccccc1)c1ccc(Cl)cc1 | 35.5 µM [rising, single point] | 35.5 µM [rising, single point]
CSc1nc2ccc(NC(=O)C3CC(=O)N(Cc4ccccc4)C3)cc2s1 (centres undefined) | 0.0708 µM [falling, partial curve] | 
Cc1ccc(S(=O)(=O)NCC(=O)N/N=C/c2ccc(Cl)cc2)cc1 |  | 35.5 µM [rising, partial curve]
CCc1c(O)nc(SCC(=O)Nc2ccc(C)cc2)n(C2CCCCC2)c1=O | 17.8 µM [rising, single point] | 25.1 µM [rising, single point]
COc1ccc(N(CC2CO2)S(=O)(=O)c2ccccc2)cc1 (centres undefined) |  | 14.1 µM [rising, single point]
CC(=O)c1c(C(C)=O)c(C)n(-c2nc(-c3ccc(Br)cc3)c(C)s2)c1C | 35.5 µM [rising, single point] | 
CC(C)(C)NC[C@H](O)c1cc(O)cc(O)c1 |  | 7.94 µM [rising, single point]
Cc1ccc(N2C(=O)C3C4C=CC(CNC(=S)Nc5ccc(Cl)cc5)(O4)C3C2=O)cc1 (centres undefined) |  | 22.4 µM [rising, single point]
Cc1ccc(Cl)c2sc(N3CCN(C(=O)C4CC4)CC3)nc12 | 0.447 µM [falling, single point] | 0.178 µM [falling, partial curve, poor fit]
COc1ccccc1C(=O)N1CCN(Cc2ccc3c(c2)OCO3)CC1 |  | 15.8 µM [rising, single point]
COC(=O)c1c(NC(=O)c2ccc(S(=O)(=O)N3CCCC(C)C3)cc2)sc2c1CCN(C(C)C)C2 (centres undefined) |  | 12.6 µM [falling, partial curve, poor fit]
